Measurements reported in PMC11310345.
No constants are given. Whether binding was seen depends on the method and setting. Binding seen in cells or lysates may run through a third protein. Some results given as binding are weak or reduced against the parent protein; the word gives no strength. For part of these data: Sequences can lack the tags named with a protein.

Experiments:
[1] = biological target: T1, RIMKLA containing 6×His-tag, overexpressed from adenovirus (Ad-RIMKLA) (UniProt Q6PFX8); experiment: co-IP; cross co-IP: protein A/G Sepharose beads crosslinked with 10 µg RIMKLA or BHMT1 antibodies (IgG as negative control); 1 mg total protein of mouse primary hepatocytes infected with Ad-GFP or Ad-RIMKLA for 24 h, overnight at 4 °C; immunoblot
T1 sequence: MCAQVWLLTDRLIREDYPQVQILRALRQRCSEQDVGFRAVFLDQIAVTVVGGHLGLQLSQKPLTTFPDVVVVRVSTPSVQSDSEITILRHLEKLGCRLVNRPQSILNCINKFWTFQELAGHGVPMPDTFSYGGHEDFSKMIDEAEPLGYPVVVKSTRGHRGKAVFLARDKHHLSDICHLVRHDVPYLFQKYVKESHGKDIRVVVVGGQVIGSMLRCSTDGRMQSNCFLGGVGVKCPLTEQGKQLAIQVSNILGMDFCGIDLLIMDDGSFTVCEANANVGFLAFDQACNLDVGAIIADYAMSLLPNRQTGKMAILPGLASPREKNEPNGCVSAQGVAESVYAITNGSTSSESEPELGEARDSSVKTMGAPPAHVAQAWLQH

[2] = biological target: T2, ribosomal modification protein rimK-like family member A (RIMKLA), endogenous (mouse (endogenous in primary mouse hepatocytes)) (UniProt Q6PFX8); experiment: as above
T2 sequence: T1 sequence

[3] = biological target: T3, RIMKLA-His fusion protein (recombinant RIMKLA) (mouse) (UniProt Q6PFX8); experiment: pull-down; RIMKLA-His from E. coli lysate held on His-tag purification resin (empty vector PET28a lysate as control), washed; total cell extracts added overnight; western blot with antibodies against RIMKLA or BHMT1; only the target purified
T3 sequence: T1 sequence

Measured: binding

B1: betaine-homocysteine S-methyltransferase 1 (BHMT1), endogenous (enzyme, UniProt O35490 1-407)
chain: MAPVAGKKAKKGILERLNAGEVVIGDGGFVFALEKRGYVKAGPWTPEAAVEHPEAVRQLHREFLRAGSNVMQTFTFYASEDKLENRGNYVAEKISGQKVNEAACDIARQVADEGDALVAGGVSQTPSYLSCKSEVEVKKIFRQQLEVFMKKNVDFLIAEYFEHVEEAVWAVEALKASGKPVAATMCIGPEGDLHGVPPGECAVRLVKAGASIVGVNCHFDPSVSLQTVKLMKEGLEAARLKAYLMSQPLAYHTPDCGKQGFIDLPEFPFGLEPRVATRWDIQKYAREAYNLGVRYIGGCCGFEPYHIRAIAEELAPERGFLPPASEKHGSWGSGLDMHTKPWIRARARKEYWQNLRIASGRPYNPSMSRPDAWGVTKGAAELMQQKEATTEQQLRELFEKQKFKSAQ
binds: all assays above
